Test results from patent EP4311830A1 (King Faisal Specialist Hospital & Research Centre, priority 2022, dated 2024).

System: MDA-MB-231
Test: Cytotoxicity assay (WST1)
Format: cell-based
Settings: Breast, MDA-MB-231, WST1
Procedure: 5,000 cells/well were seeded in 96-well plates with appropriate culture media. After cells treatment, WST-1 reagent (Sigma-Aldrich) was added to each well according to the manufacturer's instructions. These experiments were performed in triplicates and were repeated several times.

## N.N.[Cl][Pt][Cl] [Cisplatin, (SP-4-2)-diamminedichloridoplatinum(II)]
  IC50: 22.8 ± 2.13 µM
